Results are given in words; binding and its absence hold for the method and conditions named. Binding seen in cells or lysates may run through a third protein. Some results given as binding are weak or reduced against the parent protein; the word gives no strength.
Molecular target: Nuf2 labelled with Venus (Saccharomyces cerevisiae) (UniProt P33895)
Assay: FRET or BRET; epifluorescence of live yeast, kinetochore clusters; proximity ratios with mCerulean-Venus as FRET pair at positions equivalent to the GFP-mCherry strains

Chains of the proteins cited; added tags and fusions are not shown.
UniProt P33895: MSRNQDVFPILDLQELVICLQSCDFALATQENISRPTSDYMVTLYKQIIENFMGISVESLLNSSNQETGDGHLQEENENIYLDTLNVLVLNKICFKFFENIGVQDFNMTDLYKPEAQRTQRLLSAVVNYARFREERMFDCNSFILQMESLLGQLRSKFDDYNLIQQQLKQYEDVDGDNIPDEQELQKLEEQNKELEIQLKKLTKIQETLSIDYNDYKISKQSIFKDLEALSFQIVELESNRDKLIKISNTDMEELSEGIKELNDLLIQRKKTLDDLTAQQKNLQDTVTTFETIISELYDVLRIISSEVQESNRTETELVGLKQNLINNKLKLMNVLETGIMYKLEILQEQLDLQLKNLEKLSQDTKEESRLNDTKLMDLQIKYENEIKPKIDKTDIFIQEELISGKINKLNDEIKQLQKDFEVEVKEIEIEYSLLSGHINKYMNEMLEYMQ
UniProt P40460: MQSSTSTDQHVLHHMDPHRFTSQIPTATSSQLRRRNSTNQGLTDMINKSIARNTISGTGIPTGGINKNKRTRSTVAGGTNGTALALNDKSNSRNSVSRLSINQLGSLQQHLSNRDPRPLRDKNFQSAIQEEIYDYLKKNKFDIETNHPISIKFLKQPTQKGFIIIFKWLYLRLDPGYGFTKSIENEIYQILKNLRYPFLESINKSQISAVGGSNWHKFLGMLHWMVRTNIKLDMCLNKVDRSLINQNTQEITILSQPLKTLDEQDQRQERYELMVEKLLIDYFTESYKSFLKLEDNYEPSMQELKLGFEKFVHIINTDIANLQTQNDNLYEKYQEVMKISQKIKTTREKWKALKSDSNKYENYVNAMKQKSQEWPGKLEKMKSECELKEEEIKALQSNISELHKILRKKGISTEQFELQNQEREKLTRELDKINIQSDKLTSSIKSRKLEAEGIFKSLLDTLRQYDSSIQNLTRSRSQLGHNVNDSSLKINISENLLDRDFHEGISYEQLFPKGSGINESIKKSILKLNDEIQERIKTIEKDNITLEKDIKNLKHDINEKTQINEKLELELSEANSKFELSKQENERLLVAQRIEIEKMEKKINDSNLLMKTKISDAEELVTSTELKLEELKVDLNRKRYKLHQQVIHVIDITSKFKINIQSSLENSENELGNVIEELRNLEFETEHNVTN

- binding: binds
Substance: Ndc80 labelled with mCerulean (from UniProt P40460 1-691)
